Test results taken from PMC12215968.
These are yes or no findings as the source states them, for the method shown. In cells and extracts the contact can be indirect. Some results given as binding are weak or reduced against the parent protein; the word gives no strength.

Amino acid sequences for entries named in this document (tags omitted).
UniProt P60896: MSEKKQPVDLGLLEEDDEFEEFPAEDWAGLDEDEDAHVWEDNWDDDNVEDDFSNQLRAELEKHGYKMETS

Molecular target: Rpn7 (human) (UniProt Q15008)
Assay: cross-linking; human 26S proteasomes affinity-purified from native lysate of 293 HBTH-Rpn1 cells on streptavidin-sepharose; cross-linked on-bead with […] TSTO in PBS pH 7.5, 1 h, room temperature; cross-links identified by LC-MSn

- binding: binds
Substance: Dss1 (from UniProt P60896 1-70)
